B1: Angiotensin-converting enzyme (protein, UniProt P12821 30-1306, looked up)
Angiotensin-converting enzyme: LDPGLQPGNFSADEAGAQLFAQSYNSSAEQVLFQSVAASWAHDTNITAENARRQEEAALLSQEFAEAWGQKAKELYEPIWQNFTDPQLRRIIGAVRTLGSANLPLAKRQQYNALLSNMSRIYSTAKVCLPNKTATCWSLDPDLTNILASSRSYAMLLFAWEGWHNAAGIPLKPLYEDFTALSNEAYKQDGFTDTGAYWRSWYNSPTFEDDLEHLYQQLEPLYLNLHAFVRRALHRRYGDRYINLRGPIPAHLLGDMWAQSWENIYDMVVPFPDKPNLDVTSTMLQQGWNATHMFRVAEEFFTSLELSPMPPEFWEGSMLEKPADGREVVCHASAWDFYNRKDFRIKQCTRVTMDQLSTVHHEMGHIQYYLQYKDLPVSLRRGANPGFHEAIGDVLALSVSTPEHLHKIGLLDRVTNDTESDINYLLKMALEKIAFLPFGYLVDQWRWGVFSGRTPPSRYNFDWWYLRTKYQGICPPVTRNETHFDAGAKFHVPNVTPYIRYFVSFVLQFQFHEALCKEAGYEGPLHQCDIYRSTKAGAKLRKVLQAGSSRPWQEVLKDMVGLDALDAQPLLKYFQPVTQWLQEQNQQNGEVLGWPEYQWHPPLPDNYPEGIDLVTDEAEASKFVEEYDRTSQVVWNEYAEANWNYNTNITTETSKILLQKNMQIANHTLKYGTQARKFDVNQLQNTTIKRIIKKVQDLERAALPAQELEEYNKILLDMETTYSVATVCHPNGSCLQLEPDLTNVMATSRKYEDLLWAWEGWRDKAGRAILQFYPKYVELINQAARLNGYVDAGDSWRSMYETPSLEQDLERLFQELQPLYLNLHAYVRRALHRHYGAQHINLEGPIPAHLLGNMWAQTWSNIYDLVVPFPSAPSMDTTEAMLKQGWTPRRMFKEADDFFTSLGLLPVPPEFWNKSMLEKPTDGREVVCHASAWDFYNGKDFRIKQCTTVNLEDLVVAHHEMGHIQYFMQYKDLPVALREGANPGFHEAIGDVLALSVSTPKHLHSLNLLSSEGGSDEHDINFLMKMALDKIAFIPFSYLVDQWRWRVFDGSITKENYNQEWWSLRLKYQGLCPPVPRTQGDFDPGAKFHIPSSVPYIRYFVSFIIQFQFHEALCQAAGHTGPLHKCDIYQSKEAGQRLATAMKLGFSRPWPEAMQLITGQPNMSASAMLSYFKPLLDWLRTENELHGEKLGWPQYNWTPNSARSEGPLPDSGRVSFLGLDLDAQQARVGQWLLLFLGIALLVATLGLSQRLFSIRHRSLHRHSHGPQFGSEVELRHS
B2: Adenosylhomocysteinase (protein, UniProt P23526 2-432, looked up)
Adenosylhomocysteinase: SDKLPYKVADIGLAAWGRKALDIAENEMPGLMRMRERYSASKPLKGARIAGCLHMTVETAVLIETLVTLGAEVQWSSCNIFSTQDHAAAAIAKAGIPVYAWKGETDEEYLWCIEQTLYFKDGPLNMILDDGGDLTNLIHTKYPQLLPGIRGISEETTTGVHNLYKMMANGILKVPAINVNDSVTKSKFDNLYGCRESLIDGIKRATDVMIAGKVAVVAGYGDVGKGCAQALRGFGARVIITEIDPINALQAAMEGYEVTTMDEACQEGNIFVTTTGCIDIILGRHFEQMKDDAIVCNIGHFDVEIDVKWLNENAVEKVNIKPQVDRYRLKNGRRIILLAEGRLVNLGCAMGHPSFVMSNSFTNQVMAQIELWTHPDKYPVGVHFLPKKLDEAVAEAHLGKLNVKLTKLTEKQAQYLGMSCDGPFKPDHYRY
B3: Ras-related protein Rab-5C (protein, UniProt P51148 1-216, looked up)
Ras-related protein Rab-5C: MAGRGGAARPNGPAAGNKICQFKLVLLGESAVGKSSLVLRFVKGQFHEYQESTIGAAFLTQTVCLDDTTVKFEIWDTAGQERYHSLAPMYYRGAQAAIVVYDITNTDTFARAKNWVKELQRQASPNIVIALAGNKADLASKRAVEFQEAQAYADDNSLLFMETSAKTAMNVNEIFMAIAKKLPKNEPQNATGAPGRNRGVDLQENNPASRSQCCSN
B4: Calreticulin (protein, UniProt P27797 18-417, looked up)
Calreticulin: EPAVYFKEQFLDGDGWTSRWIESKHKSDFGKFVLSSGKFYGDEEKDKGLQTSQDARFYALSASFEPFSNKGQTLVVQFTVKHEQNIDCGGGYVKLFPNSLDQTDMHGDSEYNIMFGPDICGPGTKKVHVIFNYKGKNVLINKDIRCKDDEFTHLYTLIVRPDNTYEVKIDNSQVESGSLEDDWDFLPPKKIKDPDASKPEDWDERAKIDDPTDSKPEDWDKPEHIPDPDAKKPEDWDEEMDGEWEPPVIQNPEYKGEWKPRQIDNPDYKGTWIHPEIDNPEYSPDPSIYAYDNFGVLGLDLWQVKSGTIFDNFLITNDEAYAEEFGNETWGVTKAAEKQMKDKQDEEQRLKEEEEDKKRKEEEEAEDKEDDEDKDEDEEDEEDKEEDEEEDVPGQAKDEL
B5: Plasma membrane calcium-transporting ATPase 4 (protein, UniProt P23634 1-1241, looked up)
Plasma membrane …: MTNPSDRVLPANSMAESREGDFGCTVMELRKLMELRSRDALTQINVHYGGVQNLCSRLKTSPVEGLSGNPADLEKRRQVFGHNVIPPKKPKTFLELVWEALQDVTLIILEIAAIISLVLSFYRPAGEENELCGQVATTPEDENEAQAGWIEGAAILFSVIIVVLVTAFNDWSKEKQFRGLQCRIEQEQKFSIIRNGQLIQLPVAEIVVGDIAQVKYGDLLPADGILIQGNDLKIDESSLTGESDHVKKSLDKDPMLLSGTHVMEGSGRMVVTAVGVNSQTGIILTLLGVNEDDEGEKKKKGKKQGVPENRNKAKTQDGVALEIQPLNSQEGIDNEEKDKKAVKVPKKEKSVLQGKLTRLAVQIGKAGLLMSALTVFILILYFVIDNFVINRRPWLPECTPIYIQYFVKFFIIGITVLVVAVPEGLPLAVTISLAYSVKKMMKDNNLVRHLDACETMGNATAICSDKTGTLTMNRMTVVQAYIGGIHYRQIPSPDVFLPKVLDLIVNGISINSAYTSKILPPEKEGGLPRQVGNKTECALLGFVTDLKQDYQAVRNEVPEEKLYKVYTFNSVRKSMSTVIRNPNGGFRMYSKGASEIILRKCNRILDRKGEAVPFKNKDRDDMVRTVIEPMACDGLRTICIAYRDFDDTEPSWDNENEILTELTCIAVVGIEDPVRPEVPDAIAKCKQAGITVRMVTGDNINTARAIATKCGILTPGDDFLCLEGKEFNRLIRNEKGEVEQEKLDKIWPKLRVLARSSPTDKHTLVKGIIDSTVGEHRQVVAVTGDGTNDGPALKKADVGFAMGIAGTDVAKEASDIILTDDNFTSIVKAVMWGRNVYDSISKFLQFQLTVNVVAVIVAFTGACITQDSPLKAVQMLWVNLIMDTFASLALATEPPTESLLKRRPYGRNKPLISRTMMKNILGHAFYQLIVIFILVFAGEKFFDIDSGRKAPLHSPPSQHYTIVFNTFVLMQLFNEINSRKIHGEKNVFSGIYRNIIFCSVVLGTFICQIFIVEFGGKPFSCTSLSLSQWLWCLFIGIGELLWGQFISAIPTRSLKFLKEAGHGTTKEEITKDAEGLDEIDHAEMELRRGQILWFRGLNRIQTQIDVINTFQTGASFKGVLRRQNMGQHLDVKLVPSSSYIKVVKAFHSSLHESIQKPYNQKSIHSFMTHPEFAIEEELPRTPLLDEEEEENPDKASKFGTRVLLLDGEVTPYANTNNNAVDCNQVQLPQSDSSLQSLETSV

Tested on: human endometrial epithelial cells (HEECs)
Experiment: LC-MS/MS analysis of plasma membrane-enriched proteins of HEECs
Conditions: for Total unique peptides, Samples 1: sample 1, proliferative phase; for Total unique peptides, Samples 2: sample 2, proliferative phase; for Total unique peptides, Samples 3: sample 3, proliferative phase

Molecule | Total unique peptides, Samples 1 | Total unique peptides, Samples 2 | Total unique peptides, Samples 3
B1 | 2 | 1 | 2
B2 | 4 | 6 | 6
B3 | 2 | 1 | 1
B4 | 5 | 5 | 4
B5 | 7 | 7 | 4
